PubChem BioAssay AID652248, Drosophila RNAi Screening Center – 2013
Shown is a random part of 863 reagents. 32 of all reagents (3.7%) were called active. 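Calls also used reproducibility and a similarity ranking whose scores are not deposited; many active genes show only modest elongated scores.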 Further read-outs or replicates are left out here. Not given: the amount of reagent, the time to read-out.

Screen: 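Kinases and phosphatases whose loss pushes fly blood cells toward elongated shapes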 (primary screen)
System: cultured Drosophila hemocytes
Reagents: long dsRNA against Drosophila genes
Measured: 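Automated microscopy of stained actin, tubulin and nuclei; single-cell shape measures assigned to five reference shape types, giving a score per dsRNA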
Scale: elongated score: higher = more elongated bipolar cells
Rule for the call: 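Hits show a significant increase of elongated cells; higher rank given where elongated cells rose as other shape types fell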

Knock-down of trbl (tribbles) [DRSC11901] came out at: elongated score, rep 1 = -0.16; inactive. After knock-down of Hipk (Homeodomain interacting protein kinase) [DRSC23155], the screen gave elongated score, rep 1 = -0.53; inactive. For MAPk-Ak2 (MAP kinase activated protein-kinase-2) [DRSC18678], the values are elongated score, rep 1 = -0.53; inactive. With knock-down of MAPk-Ak2 (MAP kinase activated protein-kinase-2) [DRSC29642] the results were elongated score, rep 1 = 2.65; inactive. Knock-down of CSN8 (COP9 signalosome subunit 8) [DRSC02257] gave: elongated score, rep 1 = -0.41; inactive. After knock-down of GckIII (Germinal centre kinase III) [DRSC15729], the screen gave elongated score, rep 1 = 2.75; inactive.

Knock-down of Ptpmeg2 (Protein tyrosine phosphatase Meg2) [DRSC18277] came out at: elongated score, rep 1 = -0.45; inactive. For Ptpmeg2 (Protein tyrosine phosphatase Meg2) [DRSC18278], the values are elongated score, rep 1 = -0.53; inactive. Ptpmeg2 (Protein tyrosine phosphatase Meg2) [DRSC23303] gave elongated score, rep 1 = -0.29; inactive. Depletion of Ptpmeg2 (Protein tyrosine phosphatase Meg2) [DRSC26646] resulted in: elongated score, rep 1 = 0.21; inactive. After knock-down of gish (gilgamesh) [DRSC16154], the screen gave elongated score, rep 1 = -0.53; inactive. Depletion of CG44153 [DRSC02228] resulted in: elongated score, rep 1 = -0.35; inactive.

CG44153 [DRSC02229] scored elongated score, rep 1 = -0.53; inactive. CG44153 [DRSC02902] showed elongated score, rep 1 = -0.53; inactive. For CG44153 [DRSC02903], the values are elongated score, rep 1 = 0; inactive. For Alp13 (Alkaline phosphatase 13) [DRSC15781], the values are elongated score, rep 1 = -0.53; inactive. After knock-down of Src64B (Src oncogene at 64B) [DRSC08700] the results were elongated score, rep 1 = -0.53; inactive. Against Mapmodulin [DRSC06956], the entry reads elongated score, rep 1 = 0.81; inactive.

With knock-down of IA-2 (IA-2 protein tyrosine phosphatase) [DRSC00304], the screen gave elongated score, rep 1 = -0.15; elongated score, rep 2 = 0.84; inactive. IA-2 (IA-2 protein tyrosine phosphatase) [DRSC00652] scored elongated score, rep 1 = 0.04; inactive. With knock-down of IA-2 (IA-2 protein tyrosine phosphatase) [DRSC23335], the screen gave elongated score, rep 1 = 0.36; inactive. IA-2 (IA-2 protein tyrosine phosphatase) [DRSC24588] gave elongated score, rep 1 = -0.53; inactive. Silencing of Abl (Abl tyrosine kinase) [DRSC09661] resulted in: elongated score, rep 1 = 0.43; inactive. Abl (Abl tyrosine kinase) [DRSC23306] scored elongated score, rep 1 = -0.32; inactive.

Knock-down of Takl1 (Tak1-like 1) [DRSC13443] came out at: elongated score, rep 1 = -0.02; inactive. Against Takl1 (Tak1-like 1) [DRSC28251], the values are elongated score, rep 1 = -0.07; inactive. Against Mkp3 (Mitogen-activated protein kinase phosphatase 3) [DRSC10084] the deposit lists elongated score, rep 1 = -0.24; inactive. Silencing of Mkp3 (Mitogen-activated protein kinase phosphatase 3) [DRSC10085] gave: elongated score, rep 1 = -0.53; inactive. For laza (lazaro) [DRSC11661], the values are elongated score, rep 1 = 0.36; inactive. For laza (lazaro) [DRSC23330], the entry reads elongated score, rep 1 = -0.22; inactive.

After knock-down of laza (lazaro) [DRSC29129], the record shows elongated score, rep 1 = 4.36; inactive. Pka-R2 (Protein kinase, cAMP-dependent, regulatory subunit type 2) [DRSC07509] scored elongated score, rep 1 = 0.25; inactive. After knock-down of Pka-R2 (Protein kinase, cAMP-dependent, regulatory subunit type 2) [DRSC29214], the screen gave elongated score, rep 1 = 4.2; inactive. For bt (bent) [DRSC17129], the values are elongated score, rep 1 = -0.1; elongated score, rep 2 = -0.35; inactive. Knock-down of bt (bent) [DRSC17171] resulted in: elongated score, rep 1 = -0.27; elongated score, rep 2 = -0.53; inactive.

Already shown: an excerpt of the list.
IA-2 (IA-2 protein tyrosine phosphatase) [DRSC24588] → elongated score, rep 1 = -0.53; activity call = inactive
Abl (Abl tyrosine kinase) [DRSC09661] → elongated score, rep 1 = 0.43; activity call = inactive
